According to PMC7608443:
These are yes or no findings as the source states them, for the method shown. Binding seen in cells or lysates may run through a third protein. Some binding calls cover weakened binding; strength is not graded here. For part of these data: Where a sequence is shown, tags or fusion partners need not be part of it. Each block holds one molecule with its values, some of them ahead of it.

Amino acid sequences for entries named in this document (tags omitted).
UniProt P35991: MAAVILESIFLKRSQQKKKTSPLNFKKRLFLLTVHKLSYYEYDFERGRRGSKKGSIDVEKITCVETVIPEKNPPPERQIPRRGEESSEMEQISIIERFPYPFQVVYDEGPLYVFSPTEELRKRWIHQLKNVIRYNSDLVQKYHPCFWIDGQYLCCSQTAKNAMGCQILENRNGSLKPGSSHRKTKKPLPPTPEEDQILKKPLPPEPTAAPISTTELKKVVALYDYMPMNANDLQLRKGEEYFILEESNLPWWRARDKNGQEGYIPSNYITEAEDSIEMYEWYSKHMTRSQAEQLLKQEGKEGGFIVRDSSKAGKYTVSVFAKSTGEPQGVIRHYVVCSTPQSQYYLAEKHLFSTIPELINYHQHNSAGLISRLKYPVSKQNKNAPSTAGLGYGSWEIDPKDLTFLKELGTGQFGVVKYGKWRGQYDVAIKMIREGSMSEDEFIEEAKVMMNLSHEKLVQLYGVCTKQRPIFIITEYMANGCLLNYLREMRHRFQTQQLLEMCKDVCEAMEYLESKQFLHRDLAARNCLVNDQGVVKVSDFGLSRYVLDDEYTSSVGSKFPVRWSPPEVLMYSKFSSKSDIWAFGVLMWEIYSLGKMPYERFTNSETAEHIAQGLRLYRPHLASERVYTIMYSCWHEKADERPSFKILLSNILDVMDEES
UniProt P43404: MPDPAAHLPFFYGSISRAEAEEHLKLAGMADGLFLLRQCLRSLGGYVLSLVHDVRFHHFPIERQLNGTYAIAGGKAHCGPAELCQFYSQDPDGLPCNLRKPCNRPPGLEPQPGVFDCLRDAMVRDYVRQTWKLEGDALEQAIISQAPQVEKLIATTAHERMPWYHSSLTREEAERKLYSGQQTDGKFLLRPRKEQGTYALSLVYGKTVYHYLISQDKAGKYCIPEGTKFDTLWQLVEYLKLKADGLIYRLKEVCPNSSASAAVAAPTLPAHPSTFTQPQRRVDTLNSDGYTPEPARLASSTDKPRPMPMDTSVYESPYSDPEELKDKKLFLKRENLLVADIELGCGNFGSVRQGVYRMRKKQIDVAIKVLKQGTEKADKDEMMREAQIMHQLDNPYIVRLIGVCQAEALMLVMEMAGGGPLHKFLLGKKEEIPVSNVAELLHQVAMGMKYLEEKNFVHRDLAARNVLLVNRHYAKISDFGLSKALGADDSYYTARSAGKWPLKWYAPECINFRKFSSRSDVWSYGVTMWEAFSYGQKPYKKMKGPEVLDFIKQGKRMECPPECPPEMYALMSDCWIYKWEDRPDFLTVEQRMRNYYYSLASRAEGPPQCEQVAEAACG

Assays:
[1] = target: T1, Flag-tagged PLCγ1 (UniProt Q62077); assay: co-IP; BTK-HA overexpressed in 293T cells with a Flag-tagged partner; immunoprecipitation with a Flag antibody, immunoblot; in the absence of TCR signaling
T1 sequence: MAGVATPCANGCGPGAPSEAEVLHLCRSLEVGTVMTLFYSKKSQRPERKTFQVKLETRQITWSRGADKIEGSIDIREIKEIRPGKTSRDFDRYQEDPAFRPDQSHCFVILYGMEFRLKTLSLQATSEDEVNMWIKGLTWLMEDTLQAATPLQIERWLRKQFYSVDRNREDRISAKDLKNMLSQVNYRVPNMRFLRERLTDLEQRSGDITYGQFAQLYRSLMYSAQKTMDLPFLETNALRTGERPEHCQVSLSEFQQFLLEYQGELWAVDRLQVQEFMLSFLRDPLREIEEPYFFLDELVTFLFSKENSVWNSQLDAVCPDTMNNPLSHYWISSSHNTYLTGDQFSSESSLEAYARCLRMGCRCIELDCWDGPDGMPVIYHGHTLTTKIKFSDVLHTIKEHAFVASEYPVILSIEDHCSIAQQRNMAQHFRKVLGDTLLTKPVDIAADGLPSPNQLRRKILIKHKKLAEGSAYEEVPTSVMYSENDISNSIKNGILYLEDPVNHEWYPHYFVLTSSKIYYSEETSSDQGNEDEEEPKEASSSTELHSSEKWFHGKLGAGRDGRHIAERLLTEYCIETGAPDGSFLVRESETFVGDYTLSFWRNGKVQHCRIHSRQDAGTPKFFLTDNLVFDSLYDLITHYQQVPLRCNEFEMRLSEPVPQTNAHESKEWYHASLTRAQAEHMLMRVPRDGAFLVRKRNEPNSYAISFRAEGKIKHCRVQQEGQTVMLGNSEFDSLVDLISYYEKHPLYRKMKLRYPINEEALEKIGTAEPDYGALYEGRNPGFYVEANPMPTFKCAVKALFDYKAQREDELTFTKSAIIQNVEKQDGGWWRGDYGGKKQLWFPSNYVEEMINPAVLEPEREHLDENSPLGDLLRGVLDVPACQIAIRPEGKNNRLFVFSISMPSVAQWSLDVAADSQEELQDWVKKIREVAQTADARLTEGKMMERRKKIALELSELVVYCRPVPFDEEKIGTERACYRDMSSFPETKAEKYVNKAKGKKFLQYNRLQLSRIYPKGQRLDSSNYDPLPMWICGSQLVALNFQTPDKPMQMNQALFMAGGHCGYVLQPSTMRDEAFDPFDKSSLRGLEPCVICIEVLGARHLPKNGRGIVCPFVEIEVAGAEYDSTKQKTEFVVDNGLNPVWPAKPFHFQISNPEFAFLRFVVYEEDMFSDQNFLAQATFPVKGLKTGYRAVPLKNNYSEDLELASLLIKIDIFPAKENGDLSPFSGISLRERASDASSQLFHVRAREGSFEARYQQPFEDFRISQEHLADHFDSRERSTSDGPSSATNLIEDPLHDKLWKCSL

[2] = target: Bruton's tyrosine kinase (BTK), endogenous in CD4+ T cells (mouse (endogenous in CD4+ T cells)) (UniProt P35991); assay: co-IP; endogenous proteins; CD4+ T cells with or without TCR engagement (plate-bound anti-CD3 plus CD28); lysates immunoprecipitated with an anti-BTK antibody, immunoblot

binding [1]: binds
Molecule: BTK-HA (Bruton's tyrosine kinase, HA-tagged) (from UniProt P35991 1-659)

binding [2]: no binding
Molecule: ZAP70, endogenous in CD4+ T cells (from UniProt P43404 1-618)

binding [2]: no binding
B1: LAT, endogenous in CD4+ T cells (protein, UniProt O54957 1-242)
chain: MEADALSPVGLGLLLLPFLVTLLAALCVRCRELPVSYDSTSTESLYPRSILIKPPQITVPRTPAVSYPLVTSFPPLRQPDLLPIPRSPQPLGGSHRMPSSQQNSDDANSVASYENQEPACKNVDADEDEDDYPNGYLVVLPDSSPAAVPVVSSAPVPSNPDLGDSAFSVESCEDYVNVPESEESAEASLDGSREYVNVSPEQQPVTRAELASVNSQEVEDEGEEEGVDGEEAPDYENLQELN
